Results are given in words; binding and its absence hold for the method and conditions named.
What was measured:
[1] = biological target: T1, sulfotransferase SULT1E1 (human) (UniProt P49888); assay: SPR; SULT1E1 or SULT2A1 covalently immobilised on CM5 chip via amino groups; CYP17A1full, CYP17A1tr or CYB5A injected at 50 to 5000 nM in HBS-EP+ (10 mM HEPES, 150 mM NaCl, 3 mM EDTA, 0.05% P20, pH 7.4), 25 °C; no PAPS; 1:1 Langmuir model; both purified
T1 sequence: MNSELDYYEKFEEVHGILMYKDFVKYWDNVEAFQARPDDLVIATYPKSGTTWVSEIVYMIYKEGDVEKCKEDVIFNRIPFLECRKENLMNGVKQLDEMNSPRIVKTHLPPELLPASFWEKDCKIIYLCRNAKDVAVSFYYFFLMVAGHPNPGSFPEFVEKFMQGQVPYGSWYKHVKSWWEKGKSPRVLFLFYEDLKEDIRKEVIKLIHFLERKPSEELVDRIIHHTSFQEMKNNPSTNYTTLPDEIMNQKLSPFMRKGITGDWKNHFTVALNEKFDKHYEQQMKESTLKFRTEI

[2] = biological target: T2, sulfotransferase SULT2A1 (human) (UniProt Q06520); assay: as above
T2 sequence: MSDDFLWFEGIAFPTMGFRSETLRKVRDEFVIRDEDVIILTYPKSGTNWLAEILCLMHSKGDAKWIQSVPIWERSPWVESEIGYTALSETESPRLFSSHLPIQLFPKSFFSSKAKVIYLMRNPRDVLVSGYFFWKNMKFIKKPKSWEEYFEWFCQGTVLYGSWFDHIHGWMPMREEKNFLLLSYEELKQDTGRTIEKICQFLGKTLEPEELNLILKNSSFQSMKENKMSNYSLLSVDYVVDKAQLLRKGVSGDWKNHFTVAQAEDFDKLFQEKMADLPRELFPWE

binding [1]: no binding (tested: 50 to 5000 nM)
binding [2]: no binding (tested: 50 to 5000 nM)
Substance: N-terminal hydrophobic domain-truncated CYP17A1 (CYP17A1tr) (domain or fragment)
